Measured values: patent publication US20250289789A1, “REVERSIBLE LYSINE COVALENT MODIFIERS OF CDK2 AND USES THEREOF” (Terremoto Biosciences, Inc., priority 2023, published 2025)

Amino acid sequences for entries named in this document (tags omitted).
UniProt P11802, whole entry: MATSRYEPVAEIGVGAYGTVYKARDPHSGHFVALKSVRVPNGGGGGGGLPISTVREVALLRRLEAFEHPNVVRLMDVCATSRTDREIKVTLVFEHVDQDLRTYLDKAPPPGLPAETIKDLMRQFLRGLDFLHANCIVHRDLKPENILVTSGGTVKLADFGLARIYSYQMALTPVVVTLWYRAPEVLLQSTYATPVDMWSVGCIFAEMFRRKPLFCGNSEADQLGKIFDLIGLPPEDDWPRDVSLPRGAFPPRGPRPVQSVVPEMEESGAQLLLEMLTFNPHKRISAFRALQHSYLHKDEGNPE
UniProt P24385, whole entry partner: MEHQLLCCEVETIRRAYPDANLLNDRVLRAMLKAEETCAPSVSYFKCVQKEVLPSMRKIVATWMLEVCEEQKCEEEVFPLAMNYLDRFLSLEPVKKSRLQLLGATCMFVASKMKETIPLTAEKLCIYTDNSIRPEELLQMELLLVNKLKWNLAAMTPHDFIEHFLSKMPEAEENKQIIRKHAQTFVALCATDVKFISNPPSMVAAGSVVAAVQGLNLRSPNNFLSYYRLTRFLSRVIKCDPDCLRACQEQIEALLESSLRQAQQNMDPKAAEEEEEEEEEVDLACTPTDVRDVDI

Key:
[1] = target: CDK2-NanoLuc fusion with CCNE1 in 293T or 293 cells (Homo sapiens, UniProt P24941); assay: NanoBRET Target Engagement (TE) Intracellular Kinase Assay, CDK2/CCNE1; settings: read-out: NanoBRET-CDK2/E1 IC50, 2-hour incubation
[2] = target: CDK4-NanoLuc fusion with CCND1 in 293T or 293 cells (Homo sapiens, UniProt P11802); assay: NanoBRET Target Engagement (TE) Intracellular Kinase Assay, CDK4/CCND1; settings: read-out: NanoBRET-CDK4/D1 IC50, 2-hour incubation
[3] = test system: Phospho-Rb Ser807/811 in OVCAR3 cells; assay: OVCAR3 Phospho-Rb Ser807/811 HTRF assay; settings: read-out: pRb-OVCAR3 IC50, 1 hour incubation

COc1cc(O)c(C=O)c(CCC(=O)Nc2cc([C@H]3CC[C@@H](OC(=O)N4C5COCC4C5)C3)[nH]n2)c1
IC50 [1]: 17.1 nM | IC50 [2]: 2890 nM | IC50 [3]: 295 nM

COc1cc(O)c(C=O)c(OCC(=O)Nc2cc([C@H]3CC[C@@H](OC(=O)N4CCCN4)C3)[nH]n2)c1
IC50 [1]: 7.53 nM | IC50 [2]: > 10000 nM | IC50 [3]: 94.7 nM

The match of structure and compound is tentative.
